From patent US20100297664A1 come the findings set out here.

This assay has as its target full-length mortalin with an His tag (recombinant, expressed in Escherichia coli). Briefly: BIACORE, His-tagged mortalin on NTA chip.

No constants are given. Whether binding was seen depends on the method and setting. Binding calls can cover weak binding; strength is not graded here.

B1: anti-mortalin monoclonal antibody 52-3 (antibody, V domains shown)
VH: QVQLQQPGAELVKPGASVKLSCKASGYTFTSYWMHWVKQRPGQGLEWIGEINPSNGRTNYNEKFKSKATLTVDKSSSTAYMQLSSLTSEDSAVYYCARSRYYGSCYFDYWGQGTTLTVSS
VL: KIVMTQAAFSNPVTLGTSASISCRSSKSLLYSNGITYLYWYLQKPGQSPQLLIYQMSNLASGVPDRFSSSGSGTDFTLRISRVEAEDVGVYYCAQNLELPWTFGGGTKLEIK
Turning to B1, the binding entry is on record as “binds”.
